Some of the results follow. The data scatter; read single values as rough.

Amino acid sequences for entries named in this document (tags omitted). A change or cut given only in a name is not applied to a line headed by its entry. Residues count along the entry.
UniProt Q8TBE0: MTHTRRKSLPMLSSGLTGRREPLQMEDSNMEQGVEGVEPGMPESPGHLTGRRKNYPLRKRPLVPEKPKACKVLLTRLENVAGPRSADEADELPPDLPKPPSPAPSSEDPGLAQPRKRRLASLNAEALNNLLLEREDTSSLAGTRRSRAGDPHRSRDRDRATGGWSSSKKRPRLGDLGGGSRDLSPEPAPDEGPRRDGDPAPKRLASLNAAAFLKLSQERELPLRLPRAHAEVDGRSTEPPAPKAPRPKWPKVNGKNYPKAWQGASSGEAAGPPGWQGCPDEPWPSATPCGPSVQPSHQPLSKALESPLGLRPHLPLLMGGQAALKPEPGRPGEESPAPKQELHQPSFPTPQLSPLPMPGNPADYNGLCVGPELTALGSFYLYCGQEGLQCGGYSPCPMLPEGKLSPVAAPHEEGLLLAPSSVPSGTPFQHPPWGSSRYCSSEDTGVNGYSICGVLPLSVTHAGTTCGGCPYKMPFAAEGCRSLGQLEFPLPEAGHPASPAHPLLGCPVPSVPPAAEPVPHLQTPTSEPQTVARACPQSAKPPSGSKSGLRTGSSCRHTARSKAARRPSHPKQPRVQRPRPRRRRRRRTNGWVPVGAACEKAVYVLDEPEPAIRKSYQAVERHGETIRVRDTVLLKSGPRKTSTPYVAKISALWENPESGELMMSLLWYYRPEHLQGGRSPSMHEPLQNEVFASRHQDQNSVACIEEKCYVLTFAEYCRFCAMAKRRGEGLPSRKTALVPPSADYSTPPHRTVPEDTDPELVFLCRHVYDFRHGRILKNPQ
UniProt Q8TDH9, 2-21: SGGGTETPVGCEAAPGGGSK
UniProt Q9UL15, 308-329: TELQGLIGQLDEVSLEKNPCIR
UniProt Q13535: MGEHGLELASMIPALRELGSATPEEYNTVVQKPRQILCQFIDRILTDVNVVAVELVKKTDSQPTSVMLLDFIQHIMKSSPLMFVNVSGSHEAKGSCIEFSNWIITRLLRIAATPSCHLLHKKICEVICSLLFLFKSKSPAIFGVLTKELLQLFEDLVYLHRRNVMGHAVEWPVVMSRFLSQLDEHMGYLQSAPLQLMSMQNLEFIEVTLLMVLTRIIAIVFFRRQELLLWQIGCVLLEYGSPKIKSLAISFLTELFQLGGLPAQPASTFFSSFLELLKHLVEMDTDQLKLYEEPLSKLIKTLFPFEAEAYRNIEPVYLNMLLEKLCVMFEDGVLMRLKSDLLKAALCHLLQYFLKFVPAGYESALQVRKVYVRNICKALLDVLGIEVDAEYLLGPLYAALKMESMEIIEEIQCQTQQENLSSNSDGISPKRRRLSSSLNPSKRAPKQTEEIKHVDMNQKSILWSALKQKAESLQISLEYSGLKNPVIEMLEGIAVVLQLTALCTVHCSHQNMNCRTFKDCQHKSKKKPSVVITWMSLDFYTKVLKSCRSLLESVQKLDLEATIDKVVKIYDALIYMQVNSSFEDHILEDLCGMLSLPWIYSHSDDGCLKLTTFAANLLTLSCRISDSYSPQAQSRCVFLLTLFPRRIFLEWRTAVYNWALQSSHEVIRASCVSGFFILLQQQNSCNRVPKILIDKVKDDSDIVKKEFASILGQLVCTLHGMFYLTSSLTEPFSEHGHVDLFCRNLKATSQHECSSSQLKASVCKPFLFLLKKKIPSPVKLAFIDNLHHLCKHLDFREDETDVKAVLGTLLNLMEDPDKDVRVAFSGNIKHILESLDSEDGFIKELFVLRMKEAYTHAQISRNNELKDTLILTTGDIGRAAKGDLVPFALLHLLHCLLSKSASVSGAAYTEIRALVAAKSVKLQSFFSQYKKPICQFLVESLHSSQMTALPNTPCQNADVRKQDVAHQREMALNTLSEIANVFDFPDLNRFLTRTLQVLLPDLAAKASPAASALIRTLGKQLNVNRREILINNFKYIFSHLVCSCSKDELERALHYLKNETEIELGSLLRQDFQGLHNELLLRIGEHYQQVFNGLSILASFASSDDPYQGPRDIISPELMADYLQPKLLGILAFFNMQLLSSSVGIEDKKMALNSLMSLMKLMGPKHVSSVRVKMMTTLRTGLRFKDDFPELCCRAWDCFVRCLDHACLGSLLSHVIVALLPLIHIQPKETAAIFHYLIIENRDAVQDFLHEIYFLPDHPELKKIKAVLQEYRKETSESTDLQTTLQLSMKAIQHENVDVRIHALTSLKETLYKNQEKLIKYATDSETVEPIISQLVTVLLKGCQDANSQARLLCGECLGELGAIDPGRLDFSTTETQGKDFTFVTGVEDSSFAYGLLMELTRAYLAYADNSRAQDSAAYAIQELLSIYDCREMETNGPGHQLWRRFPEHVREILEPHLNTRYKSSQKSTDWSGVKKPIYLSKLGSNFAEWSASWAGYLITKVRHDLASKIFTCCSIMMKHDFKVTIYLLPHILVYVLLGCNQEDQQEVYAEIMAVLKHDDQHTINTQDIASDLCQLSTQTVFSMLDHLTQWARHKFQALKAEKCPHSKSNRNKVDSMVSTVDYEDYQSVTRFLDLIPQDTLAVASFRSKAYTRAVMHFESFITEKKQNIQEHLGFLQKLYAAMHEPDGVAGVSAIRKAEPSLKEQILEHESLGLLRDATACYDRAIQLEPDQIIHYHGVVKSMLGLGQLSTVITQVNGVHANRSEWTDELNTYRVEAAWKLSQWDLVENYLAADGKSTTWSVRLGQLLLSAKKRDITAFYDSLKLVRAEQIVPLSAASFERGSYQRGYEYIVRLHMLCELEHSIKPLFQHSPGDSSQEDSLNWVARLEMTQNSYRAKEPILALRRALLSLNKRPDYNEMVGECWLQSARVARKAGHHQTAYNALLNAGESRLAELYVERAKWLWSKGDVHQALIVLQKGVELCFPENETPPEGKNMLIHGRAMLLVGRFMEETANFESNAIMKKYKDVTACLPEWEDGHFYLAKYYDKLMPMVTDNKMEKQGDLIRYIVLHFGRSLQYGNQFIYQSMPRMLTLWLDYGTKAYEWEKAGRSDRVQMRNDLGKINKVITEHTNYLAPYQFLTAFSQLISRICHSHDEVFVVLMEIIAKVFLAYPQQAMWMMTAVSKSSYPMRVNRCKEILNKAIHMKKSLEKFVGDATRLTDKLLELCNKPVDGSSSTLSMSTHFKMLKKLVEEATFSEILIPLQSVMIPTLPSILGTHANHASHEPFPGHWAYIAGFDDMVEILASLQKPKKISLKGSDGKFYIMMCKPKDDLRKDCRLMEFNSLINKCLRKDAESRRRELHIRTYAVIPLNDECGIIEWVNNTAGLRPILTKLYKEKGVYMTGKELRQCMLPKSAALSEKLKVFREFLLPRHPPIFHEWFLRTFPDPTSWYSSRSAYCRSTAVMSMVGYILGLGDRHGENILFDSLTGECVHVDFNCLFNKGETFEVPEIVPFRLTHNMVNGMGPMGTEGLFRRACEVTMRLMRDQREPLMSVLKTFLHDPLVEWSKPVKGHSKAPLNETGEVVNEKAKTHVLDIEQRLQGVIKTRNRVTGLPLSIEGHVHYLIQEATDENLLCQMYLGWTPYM
UniProt O14867: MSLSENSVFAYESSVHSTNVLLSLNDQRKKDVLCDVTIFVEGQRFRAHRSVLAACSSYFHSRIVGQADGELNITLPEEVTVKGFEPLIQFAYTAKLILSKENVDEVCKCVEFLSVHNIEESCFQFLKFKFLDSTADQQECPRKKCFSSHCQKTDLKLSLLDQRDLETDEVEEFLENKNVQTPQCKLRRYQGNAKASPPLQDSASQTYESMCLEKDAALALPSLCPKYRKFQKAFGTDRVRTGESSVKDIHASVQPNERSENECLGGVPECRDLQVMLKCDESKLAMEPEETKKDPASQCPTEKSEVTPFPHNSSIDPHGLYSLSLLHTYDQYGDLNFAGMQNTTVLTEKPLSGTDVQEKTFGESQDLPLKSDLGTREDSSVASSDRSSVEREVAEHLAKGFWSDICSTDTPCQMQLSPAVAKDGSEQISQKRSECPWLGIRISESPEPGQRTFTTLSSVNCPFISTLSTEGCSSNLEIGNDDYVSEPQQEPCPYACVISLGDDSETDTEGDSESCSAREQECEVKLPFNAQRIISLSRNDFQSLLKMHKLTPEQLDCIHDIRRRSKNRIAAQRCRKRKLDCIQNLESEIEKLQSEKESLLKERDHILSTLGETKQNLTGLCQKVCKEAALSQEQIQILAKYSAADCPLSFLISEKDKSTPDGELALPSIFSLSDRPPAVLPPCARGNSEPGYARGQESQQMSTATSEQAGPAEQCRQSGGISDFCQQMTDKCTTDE
UniProt P21281: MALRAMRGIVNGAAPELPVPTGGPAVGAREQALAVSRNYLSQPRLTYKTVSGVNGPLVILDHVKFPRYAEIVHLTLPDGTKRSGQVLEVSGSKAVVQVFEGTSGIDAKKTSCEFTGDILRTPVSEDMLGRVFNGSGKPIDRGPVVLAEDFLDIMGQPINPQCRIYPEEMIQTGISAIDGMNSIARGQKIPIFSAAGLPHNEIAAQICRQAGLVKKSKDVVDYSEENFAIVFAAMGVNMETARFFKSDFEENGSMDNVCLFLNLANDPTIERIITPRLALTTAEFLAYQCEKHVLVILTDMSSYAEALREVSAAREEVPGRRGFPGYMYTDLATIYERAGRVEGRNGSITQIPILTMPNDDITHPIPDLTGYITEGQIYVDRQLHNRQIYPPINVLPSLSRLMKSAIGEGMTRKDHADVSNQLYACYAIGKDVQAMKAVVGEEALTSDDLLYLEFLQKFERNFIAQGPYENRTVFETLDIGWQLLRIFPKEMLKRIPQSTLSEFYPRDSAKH
UniProt P16615: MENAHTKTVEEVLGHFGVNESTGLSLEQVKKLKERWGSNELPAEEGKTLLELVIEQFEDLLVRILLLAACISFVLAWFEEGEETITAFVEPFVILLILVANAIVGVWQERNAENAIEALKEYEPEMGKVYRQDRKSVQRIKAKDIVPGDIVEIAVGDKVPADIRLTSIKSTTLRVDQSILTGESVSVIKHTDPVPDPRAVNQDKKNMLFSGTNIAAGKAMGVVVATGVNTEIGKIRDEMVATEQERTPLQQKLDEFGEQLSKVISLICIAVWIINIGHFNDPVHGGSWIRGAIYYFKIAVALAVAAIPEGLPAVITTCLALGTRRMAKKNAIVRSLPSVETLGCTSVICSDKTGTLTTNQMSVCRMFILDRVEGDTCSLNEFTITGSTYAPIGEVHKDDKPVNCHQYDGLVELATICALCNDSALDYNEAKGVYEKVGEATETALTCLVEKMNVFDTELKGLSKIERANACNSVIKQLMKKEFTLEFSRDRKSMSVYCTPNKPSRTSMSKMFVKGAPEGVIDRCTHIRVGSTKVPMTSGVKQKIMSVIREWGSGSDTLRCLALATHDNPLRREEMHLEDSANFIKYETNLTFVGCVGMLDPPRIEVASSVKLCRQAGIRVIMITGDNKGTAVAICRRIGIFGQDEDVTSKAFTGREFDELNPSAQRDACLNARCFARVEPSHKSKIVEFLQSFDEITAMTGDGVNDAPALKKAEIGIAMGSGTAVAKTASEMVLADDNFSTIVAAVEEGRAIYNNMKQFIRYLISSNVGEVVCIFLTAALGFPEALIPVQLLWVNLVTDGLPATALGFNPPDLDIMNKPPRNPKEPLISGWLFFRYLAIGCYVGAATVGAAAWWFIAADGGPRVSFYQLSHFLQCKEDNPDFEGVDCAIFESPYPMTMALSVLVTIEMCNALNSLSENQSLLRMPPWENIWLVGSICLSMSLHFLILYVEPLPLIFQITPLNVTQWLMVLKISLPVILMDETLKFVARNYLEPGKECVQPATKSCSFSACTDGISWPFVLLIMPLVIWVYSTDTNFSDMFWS
UniProt Q6QNY0: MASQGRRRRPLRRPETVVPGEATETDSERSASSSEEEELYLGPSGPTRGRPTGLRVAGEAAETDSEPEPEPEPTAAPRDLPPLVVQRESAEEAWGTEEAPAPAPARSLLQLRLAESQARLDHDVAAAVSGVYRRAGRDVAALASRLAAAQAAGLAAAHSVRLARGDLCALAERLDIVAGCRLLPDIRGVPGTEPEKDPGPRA
UniProt P12694: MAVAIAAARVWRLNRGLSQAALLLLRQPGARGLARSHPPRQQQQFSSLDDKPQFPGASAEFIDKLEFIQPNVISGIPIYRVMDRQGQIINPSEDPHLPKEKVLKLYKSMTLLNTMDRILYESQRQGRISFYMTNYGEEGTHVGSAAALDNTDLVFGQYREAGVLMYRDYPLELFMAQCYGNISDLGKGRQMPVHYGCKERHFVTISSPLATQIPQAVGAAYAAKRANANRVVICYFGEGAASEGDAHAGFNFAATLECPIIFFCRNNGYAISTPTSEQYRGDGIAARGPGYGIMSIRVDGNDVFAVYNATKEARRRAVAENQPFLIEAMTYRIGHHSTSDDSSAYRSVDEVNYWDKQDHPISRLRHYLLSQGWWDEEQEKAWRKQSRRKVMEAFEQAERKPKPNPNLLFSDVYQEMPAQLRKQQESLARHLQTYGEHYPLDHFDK
UniProt Q9BYV9, 312-331: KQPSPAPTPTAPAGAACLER
UniProt P48047, 137-158: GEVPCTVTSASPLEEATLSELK
UniProt Q04656, 270-289: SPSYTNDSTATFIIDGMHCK

Compound in the first assay: ClCC(=O)N[C@H]1CCCc2ccccc12
Briefly: log2 mean competition ratio of IA-DTB cysteine labelling (DMSO/compound) (log2 ratio); higher = stronger cysteine engagement by compound. Particulars: 50 µM; treatment time: 4 h; cell line lysate: HEK293T. The procedure:
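IA-DTB competitive cysteine chemoproteomics in HEK293T RIPA lysate. Lysates were treated with compound 29 or 30 at 50 or 200 µM for 4 h, then IA-DTB (500 µM, 1 h), trypsin-digested, NeutrAvidin-enriched and analysed by diaPASEF. Competition ratio = intensity DMSO / intensity compound (n=4 treated, n=64 DMSO); binding: mean log2 CR ≥ 1 and p ≤ 0.05 plus QC filters. Target is the cysteine site.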
On to BAHD1 C703 (UniProt Q8TBE0), for which the “log2 mean competition ratio” value is -0.849.

On to BLOC1S5 C12 (UniProt Q8TDH9), for which the “log2 mean competition ratio” value came out at 0.252.

ASXL2 C827 (UniProt Q76L83): the “log2 mean competition ratio” value worked out at 0.655.

Turning to BAG5 C327 (UniProt Q9UL15), the “log2 mean competition ratio” value was -0.00618.

As for ATR C38 (UniProt Q13535), the “log2 mean competition ratio” value is -0.136.

As for ATF7IP C451 (UniProt Q6VMQ6), the “log2 mean competition ratio” value amounted to 0.222.

Turning to BACH1 C140 (UniProt O14867), the “log2 mean competition ratio” value was -0.0445.

Take ASXL1 C672 (UniProt Q8IXJ9): the “log2 mean competition ratio” value was -0.223.

In the case of BAG5 C360 (UniProt Q9UL15), the “log2 mean competition ratio” value was 0.0725.

Regarding ATP6V1B2 C112 (UniProt P21281), the “log2 mean competition ratio” value came out at 0.326.

Turning to ATP2A2 C997 (UniProt P16615), the “log2 mean competition ratio” value is 0.157.

As for BLOC1S3 C168 (UniProt Q6QNY0), the “log2 mean competition ratio” value came out at 0.578.

Take BCKDHA C197 (UniProt P12694): the “log2 mean competition ratio” value is -0.0388.

ATM C1286 (UniProt Q13315): the “log2 mean competition ratio” value was 0.12.

With ATAD5 C1720 (UniProt Q96QE3), the “log2 mean competition ratio” value came out at 0.0676.

Take BACH2 C328 (UniProt Q9BYV9): the “log2 mean competition ratio” value was -0.161.

With ATP5PO C141 (UniProt P48047), the “log2 mean competition ratio” value is -0.261.

For the target BACH1 C184 (UniProt O14867), the “log2 mean competition ratio” value stood at 0.112.

Turning to ATP7B C268 (UniProt P35670), the “log2 mean competition ratio” value is 0.0623.

On to ATP7A C288 (UniProt Q04656), for which the “log2 mean competition ratio” value stood at 0.434.

The same assay, now with this note: 200 µM; treatment time: 4 h; cell line lysate: HEK293T.
Consider BAHD1 C703 (UniProt Q8TBE0), for which the “log2 mean competition ratio” value was determined as 0.202.

For BLOC1S5 C12 (UniProt Q8TDH9), the “log2 mean competition ratio” value is -0.124.

As for ASXL2 C827 (UniProt Q76L83), the “log2 mean competition ratio” value was 0.285.

With BAG5 C327 (UniProt Q9UL15), the “log2 mean competition ratio” value turned out to be 0.0978.

Turning to ATR C38 (UniProt Q13535), the “log2 mean competition ratio” value was -0.192.

Turning to ATF7IP C451 (UniProt Q6VMQ6), the “log2 mean competition ratio” value was -0.0195.

Regarding BACH1 C140 (UniProt O14867), the “log2 mean competition ratio” value was determined as 0.281.

Consider ASXL1 C672 (UniProt Q8IXJ9), for which the “log2 mean competition ratio” value came to 0.0159.

In the case of BAG5 C360 (UniProt Q9UL15), the “log2 mean competition ratio” value is -0.306.

Take ATP6V1B2 C112 (UniProt P21281): the “log2 mean competition ratio” value was -0.199.

For ATP2A2 C997 (UniProt P16615), the “log2 mean competition ratio” value is -0.101.

BLOC1S3 C168 (UniProt Q6QNY0): the “log2 mean competition ratio” value was -0.0674.

For BCKDHA C197 (UniProt P12694), the “log2 mean competition ratio” value was found to be 0.264.

As to ATM C1286 (UniProt Q13315), the “log2 mean competition ratio” value was -0.252.

Consider ATAD5 C1720 (UniProt Q96QE3), for which the “log2 mean competition ratio” value turned out to be 0.0212.

On to BACH2 C328 (UniProt Q9BYV9), for which the “log2 mean competition ratio” value was 0.00296.

Regarding ATP5PO C141 (UniProt P48047), the “log2 mean competition ratio” value was -0.315.

Consider BACH1 C184 (UniProt O14867), for which the “log2 mean competition ratio” value stood at 0.265.

For the target ATP7B C268 (UniProt P35670), the “log2 mean competition ratio” value is -0.207.

On to ATP7A C288 (UniProt Q04656), for which the “log2 mean competition ratio” value stood at 0.252.

Source of the values: the supplement of paper PMC11732987, “Enantioselective OTUD7B fragment discovery through chemoproteomics screening and high-throughput optimisation” (Communications Chemistry, 2025).
